{
  "sequences": {"note": "Sequences of proteins named here, by UniProt entry; tags and fusion partners are left off. A change or cut given only in a name is not applied to a line headed by its entry. A line that says so, or that is headed by a name, gives the form on record, which may keep a tag or linker. Residues count along the entry.", "UniProt Q96SB4": "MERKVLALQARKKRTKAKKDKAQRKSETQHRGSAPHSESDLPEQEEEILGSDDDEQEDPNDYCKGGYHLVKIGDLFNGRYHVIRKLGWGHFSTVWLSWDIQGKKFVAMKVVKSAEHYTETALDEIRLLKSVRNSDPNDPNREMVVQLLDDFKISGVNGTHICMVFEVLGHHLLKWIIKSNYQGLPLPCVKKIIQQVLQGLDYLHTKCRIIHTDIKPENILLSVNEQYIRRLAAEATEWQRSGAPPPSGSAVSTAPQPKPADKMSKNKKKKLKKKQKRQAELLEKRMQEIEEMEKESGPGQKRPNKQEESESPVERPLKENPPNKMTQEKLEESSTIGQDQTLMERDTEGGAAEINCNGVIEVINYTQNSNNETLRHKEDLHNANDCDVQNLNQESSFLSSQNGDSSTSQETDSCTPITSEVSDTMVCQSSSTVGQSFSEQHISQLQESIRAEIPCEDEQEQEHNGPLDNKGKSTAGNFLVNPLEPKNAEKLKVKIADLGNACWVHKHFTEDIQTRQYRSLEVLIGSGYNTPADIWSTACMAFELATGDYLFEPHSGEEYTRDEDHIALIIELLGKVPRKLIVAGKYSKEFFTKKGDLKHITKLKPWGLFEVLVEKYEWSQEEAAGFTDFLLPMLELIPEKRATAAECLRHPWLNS", "GST-TAF15-RGG (Q92804, residues 322-592)": "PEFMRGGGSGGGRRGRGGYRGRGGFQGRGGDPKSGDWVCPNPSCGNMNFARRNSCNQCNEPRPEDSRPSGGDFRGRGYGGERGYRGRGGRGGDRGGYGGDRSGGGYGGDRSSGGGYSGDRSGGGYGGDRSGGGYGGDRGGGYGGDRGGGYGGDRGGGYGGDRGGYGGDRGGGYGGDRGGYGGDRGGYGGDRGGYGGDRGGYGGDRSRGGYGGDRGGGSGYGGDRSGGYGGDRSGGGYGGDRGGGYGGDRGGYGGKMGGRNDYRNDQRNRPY", "GST-TAF15 (Q92804-2, form named)": "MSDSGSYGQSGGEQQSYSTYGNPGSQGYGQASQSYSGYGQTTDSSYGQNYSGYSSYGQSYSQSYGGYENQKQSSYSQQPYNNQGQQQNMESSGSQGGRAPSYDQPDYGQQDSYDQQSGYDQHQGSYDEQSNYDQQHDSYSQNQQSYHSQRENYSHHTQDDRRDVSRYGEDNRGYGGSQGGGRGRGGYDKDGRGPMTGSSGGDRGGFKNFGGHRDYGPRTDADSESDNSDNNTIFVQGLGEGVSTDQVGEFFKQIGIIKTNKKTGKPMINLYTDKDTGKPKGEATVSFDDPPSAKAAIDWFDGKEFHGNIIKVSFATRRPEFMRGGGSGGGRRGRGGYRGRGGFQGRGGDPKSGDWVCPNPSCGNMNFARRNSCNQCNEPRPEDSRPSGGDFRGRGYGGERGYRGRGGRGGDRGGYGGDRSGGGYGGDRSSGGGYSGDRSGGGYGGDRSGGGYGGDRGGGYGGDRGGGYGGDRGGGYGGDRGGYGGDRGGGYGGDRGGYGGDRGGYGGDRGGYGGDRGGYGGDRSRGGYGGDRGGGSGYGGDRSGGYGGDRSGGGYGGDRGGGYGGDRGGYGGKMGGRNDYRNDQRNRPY", "GST-TAF15(1–320) (Q92804-2, form named)": "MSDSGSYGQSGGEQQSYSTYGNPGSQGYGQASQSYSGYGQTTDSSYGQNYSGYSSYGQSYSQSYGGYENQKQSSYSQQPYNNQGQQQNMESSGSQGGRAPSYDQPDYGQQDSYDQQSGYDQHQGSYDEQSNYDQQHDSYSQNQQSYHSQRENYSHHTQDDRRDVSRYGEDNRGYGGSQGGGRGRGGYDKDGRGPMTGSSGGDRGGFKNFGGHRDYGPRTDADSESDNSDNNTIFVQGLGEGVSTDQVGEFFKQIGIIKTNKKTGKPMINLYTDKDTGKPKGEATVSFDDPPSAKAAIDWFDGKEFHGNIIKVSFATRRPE"},
  "source": "paper PMC9818988",
  "about": "“SR Protein Kinase 1 Inhibition by TAF15” (Cells, 2022)",
  "key": {"[1]": {"target": "GST-SRPK1 (UniProt Q96SB4)", "experiment": "pull-down; GST-SRPK1 (2–3 μg) immobilized on glutathione-Sepharose beads, His-TAF15 (2 μg) in solution; 20 mM Hepes pH 7.5, 50 mM NaCl (also 150 and 300 mM NaCl), 1% Triton X-100, 0.5 mL, 60 min, room temperature; bound His-TAF15 detected by Coomassie Blue staining; both purified"}, "[2]": {"target": "GST-TAF15-RGG (human) (UniProt Q92804)", "experiment": "pull-down; GST fusions of TAF15 (2–3 μg each) immobilized on glutathione-Sepharose beads, incubated with HeLa cell extracts (∼200 μg of total protein); 50 mM Tris-HCl pH 7.5, 150 mM NaCl, 1% Triton X-100, 0.5 mM PMSF, 0.5 mL, 60 min, room temperature; bound SRPK1 detected by Western blotting; only the target purified"}, "[3]": {"target": "GST-TAF15 (human) (UniProt Q92804)", "experiment": "pull-down; GST fusions of TAF15 (2–3 μg each) immobilized on glutathione-Sepharose beads, incubated with HeLa cell extracts (∼200 μg of total protein); 50 mM Tris-HCl pH 7.5, 150 mM NaCl, 1% Triton X-100, 0.5 mM PMSF, 0.5 mL, 60 min, room temperature; bound SRPK1 detected by Western blotting; only the target purified"}, "[4]": {"target": "GST-TAF15(1–320) (human) (UniProt Q92804)", "experiment": "pull-down; GST fusions of TAF15 (2–3 μg each) immobilized on glutathione-Sepharose beads, incubated with HeLa cell extracts (∼200 μg of total protein); 50 mM Tris-HCl pH 7.5, 150 mM NaCl, 1% Triton X-100, 0.5 mM PMSF, 0.5 mL, 60 min, room temperature; bound SRPK1 detected by Western blotting; only the target purified"}},
  "note": "No constants are given. Whether binding was seen depends on the method and setting. For some of these results: Binding seen in cells or lysates may run through a third protein. Some results given as binding are weak or reduced against the parent protein; the word gives no strength.",
  "data": [
    {"substance": "His-TAF15 (from UniProt Q92804-2 1-589)", "values": [
      {"measurement": "binding", "setting": "[1]", "result": "binds"}
    ]},
    {"substance": "SRPK1 (endogenous, HeLa cell extracts) (from UniProt Q96SB4 1-655) (enzyme)", "values": [
      {"measurement": "binding", "setting": "[2]", "result": "binds"},
      {"measurement": "binding", "setting": "[3]", "result": "binds"},
      {"measurement": "binding", "setting": "[4]", "result": "no binding"}
    ]}
  ]
}
